Results from paper PMC12834914, “The biochemical dynamics of the glycogen phosphatase laforin directly impact brain metabolism” (The Journal of Biological Chemistry, 2025).
Results are given in words; binding and its absence hold for the method and conditions named. Some entries that bind do so weakly or less than the wild type. Where a sequence is shown, tags or fusion partners need not be part of it.

Target: T1, laforin WT (LexA fusion) (human) (UniProt O95278)
T1 sequence: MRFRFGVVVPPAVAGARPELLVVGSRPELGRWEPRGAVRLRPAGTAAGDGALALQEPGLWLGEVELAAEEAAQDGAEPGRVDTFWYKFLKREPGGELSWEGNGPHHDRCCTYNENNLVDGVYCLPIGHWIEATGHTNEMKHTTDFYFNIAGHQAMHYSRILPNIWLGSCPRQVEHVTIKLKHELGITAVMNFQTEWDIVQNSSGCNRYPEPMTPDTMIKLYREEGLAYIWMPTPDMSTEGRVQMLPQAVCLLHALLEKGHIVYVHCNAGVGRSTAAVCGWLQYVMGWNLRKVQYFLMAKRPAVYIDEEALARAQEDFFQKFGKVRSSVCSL
Assay: two-hybrid; LexA-laforin (pEG202) with Gal4 activation domain-malin or -PTG (pACT2) in S. cerevisiae; beta-galactosidase activity in yeast cell extract, in Miller Units

binding: binds
B1: protein targeting to glycogen (Gal4 activation domain fusion) (natural protein, UniProt Q9UQK1 1-317, looked up)
chain: MSCTRMIQVLDPRPLTSSVMPVDVAMRLCLAHSPPVKSFLGPYDEFQRRHFVNKLKPLKSCLNIKHKAKSQNDWKCSHNQAKKRVVFADSKGLSLTAIHVFSDLPEEPAWDLQFDLLDLNDISSALKHHEEKNLILDFPQPSTDYLSFRSHFQKNFVCLENCSLQERTVTGTVKVKNVSFEKKVQIRITFDSWKNYTDVDCVYMKNVYGGTDSDTFSFAIDLPPVIPTEQKIEFCISYHANGQVFWDNNDGQNYRIVHVQWKPDGVQTQMAPQDCAFHQTSPKTELESTIFGSPRLASGLFPEWQSWGRMENLASYR
notes: protein targeting to glycogen (PTG); also called PTG; source: yeast two-hybrid fusion (S. cerevisiae, pACT2)
